Read-outs that look alike come from different tables or passages of the source. No constants are given. Whether binding was seen depends on the method and setting. In cells and extracts the contact can be indirect. A yes stands for co-enrichment or nearness to the bait. Other partners may have been found.

Protein sequences, listed by entry. Tags and fused reporters are not part of them.
UniProt E9Q6R7: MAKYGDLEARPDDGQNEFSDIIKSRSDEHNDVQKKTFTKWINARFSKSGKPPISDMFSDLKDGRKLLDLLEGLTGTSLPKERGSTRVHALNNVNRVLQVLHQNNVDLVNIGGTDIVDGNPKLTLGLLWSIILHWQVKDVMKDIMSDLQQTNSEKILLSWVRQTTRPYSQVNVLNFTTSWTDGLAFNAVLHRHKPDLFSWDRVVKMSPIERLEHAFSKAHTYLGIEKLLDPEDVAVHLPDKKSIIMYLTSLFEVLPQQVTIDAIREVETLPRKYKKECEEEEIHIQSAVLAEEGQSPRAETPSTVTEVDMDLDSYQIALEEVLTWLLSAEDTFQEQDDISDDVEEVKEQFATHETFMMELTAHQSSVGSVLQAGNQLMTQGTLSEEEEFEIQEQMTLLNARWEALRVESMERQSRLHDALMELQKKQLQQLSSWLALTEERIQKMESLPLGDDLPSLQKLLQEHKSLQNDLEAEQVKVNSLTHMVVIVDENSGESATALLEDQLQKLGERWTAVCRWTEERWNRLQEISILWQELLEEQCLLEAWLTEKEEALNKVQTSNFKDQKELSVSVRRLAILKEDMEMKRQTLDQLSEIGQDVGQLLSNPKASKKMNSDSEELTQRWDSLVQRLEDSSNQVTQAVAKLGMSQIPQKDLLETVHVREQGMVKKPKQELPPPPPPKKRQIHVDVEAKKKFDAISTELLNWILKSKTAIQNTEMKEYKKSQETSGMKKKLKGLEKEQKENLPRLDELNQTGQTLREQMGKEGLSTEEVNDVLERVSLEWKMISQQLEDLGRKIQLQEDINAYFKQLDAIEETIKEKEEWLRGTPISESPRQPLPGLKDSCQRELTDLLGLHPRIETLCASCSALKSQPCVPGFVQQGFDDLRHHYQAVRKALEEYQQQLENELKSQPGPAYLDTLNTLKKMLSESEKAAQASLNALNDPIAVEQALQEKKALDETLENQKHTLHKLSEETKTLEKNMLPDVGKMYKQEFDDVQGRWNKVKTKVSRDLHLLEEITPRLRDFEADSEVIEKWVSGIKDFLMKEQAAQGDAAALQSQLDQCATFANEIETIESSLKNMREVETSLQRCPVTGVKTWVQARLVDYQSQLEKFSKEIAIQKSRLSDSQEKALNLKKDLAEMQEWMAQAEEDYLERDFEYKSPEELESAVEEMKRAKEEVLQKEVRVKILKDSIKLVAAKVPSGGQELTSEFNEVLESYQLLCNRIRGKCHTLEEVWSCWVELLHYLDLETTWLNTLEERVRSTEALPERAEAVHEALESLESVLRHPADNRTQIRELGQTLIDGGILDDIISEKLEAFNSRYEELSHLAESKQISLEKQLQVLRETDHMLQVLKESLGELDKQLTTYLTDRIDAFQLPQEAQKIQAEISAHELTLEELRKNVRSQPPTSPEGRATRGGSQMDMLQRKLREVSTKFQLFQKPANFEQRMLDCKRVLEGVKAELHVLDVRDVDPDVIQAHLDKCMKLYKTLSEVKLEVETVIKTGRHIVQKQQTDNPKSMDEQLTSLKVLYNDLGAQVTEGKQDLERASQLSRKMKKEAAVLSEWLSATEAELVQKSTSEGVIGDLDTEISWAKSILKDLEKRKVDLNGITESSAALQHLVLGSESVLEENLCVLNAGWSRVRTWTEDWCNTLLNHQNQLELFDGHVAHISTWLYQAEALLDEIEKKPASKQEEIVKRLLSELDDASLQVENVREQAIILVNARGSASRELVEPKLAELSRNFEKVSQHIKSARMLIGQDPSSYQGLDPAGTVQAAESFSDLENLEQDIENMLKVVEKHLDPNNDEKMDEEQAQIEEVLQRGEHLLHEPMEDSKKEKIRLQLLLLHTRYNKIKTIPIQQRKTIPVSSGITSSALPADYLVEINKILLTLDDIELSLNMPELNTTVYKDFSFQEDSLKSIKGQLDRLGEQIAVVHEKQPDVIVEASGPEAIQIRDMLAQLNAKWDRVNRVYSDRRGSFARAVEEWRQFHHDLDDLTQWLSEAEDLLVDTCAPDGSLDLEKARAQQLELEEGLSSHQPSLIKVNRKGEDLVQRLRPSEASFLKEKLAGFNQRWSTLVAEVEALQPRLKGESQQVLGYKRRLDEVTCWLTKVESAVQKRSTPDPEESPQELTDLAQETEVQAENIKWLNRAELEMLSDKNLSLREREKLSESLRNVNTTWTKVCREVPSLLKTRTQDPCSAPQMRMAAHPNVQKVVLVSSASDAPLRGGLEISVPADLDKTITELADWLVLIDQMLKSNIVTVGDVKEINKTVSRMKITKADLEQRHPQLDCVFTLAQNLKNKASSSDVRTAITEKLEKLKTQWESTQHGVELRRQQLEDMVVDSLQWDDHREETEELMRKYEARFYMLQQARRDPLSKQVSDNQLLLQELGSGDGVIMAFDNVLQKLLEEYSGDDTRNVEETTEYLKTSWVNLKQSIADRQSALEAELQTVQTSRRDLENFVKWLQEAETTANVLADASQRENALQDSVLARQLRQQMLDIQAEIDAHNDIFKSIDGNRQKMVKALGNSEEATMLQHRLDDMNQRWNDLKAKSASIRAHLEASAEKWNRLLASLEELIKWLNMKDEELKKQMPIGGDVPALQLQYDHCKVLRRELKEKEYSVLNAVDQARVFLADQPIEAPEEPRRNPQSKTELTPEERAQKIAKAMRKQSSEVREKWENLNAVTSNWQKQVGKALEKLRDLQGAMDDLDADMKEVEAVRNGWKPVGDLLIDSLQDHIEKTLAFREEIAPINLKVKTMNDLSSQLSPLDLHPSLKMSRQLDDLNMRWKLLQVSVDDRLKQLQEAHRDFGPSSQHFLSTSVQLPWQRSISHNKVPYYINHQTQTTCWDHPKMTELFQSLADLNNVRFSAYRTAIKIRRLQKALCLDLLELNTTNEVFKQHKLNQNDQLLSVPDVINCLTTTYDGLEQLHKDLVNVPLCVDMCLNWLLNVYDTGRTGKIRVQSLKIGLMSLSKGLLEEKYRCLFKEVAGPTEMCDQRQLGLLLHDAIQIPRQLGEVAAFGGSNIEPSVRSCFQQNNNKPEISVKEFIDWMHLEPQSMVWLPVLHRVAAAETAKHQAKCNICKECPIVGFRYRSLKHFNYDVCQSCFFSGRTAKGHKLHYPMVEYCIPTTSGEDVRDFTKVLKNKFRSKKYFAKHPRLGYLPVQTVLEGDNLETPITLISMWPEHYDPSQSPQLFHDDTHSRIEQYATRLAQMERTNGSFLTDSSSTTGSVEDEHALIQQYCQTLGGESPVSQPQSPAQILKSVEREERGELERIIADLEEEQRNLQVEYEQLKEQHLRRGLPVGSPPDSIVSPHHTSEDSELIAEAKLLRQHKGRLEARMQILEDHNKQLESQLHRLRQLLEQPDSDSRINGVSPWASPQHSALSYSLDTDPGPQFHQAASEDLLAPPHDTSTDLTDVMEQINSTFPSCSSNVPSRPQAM

For assay [1], the target named is T1, MAS C-terminal tail (Ct) peptide, residues 301 to 325 of human MAS receptor, N-terminal biotin, C316S (human).
T1 sequence (peptide, biotin on the N-terminus): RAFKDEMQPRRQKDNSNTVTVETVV
The assay is described as follows: affinity purification with mass spectrometry; biotinylated MAS Ct peptide immobilised on NeutrAvidin agarose resin; HL-1 cell lysate (~6 mg), overnight at 4°C; washes with D-PBS; elution with 2% SDS; LC-MS of whole gel lanes; resin alone as control; only the target purified.

Assay [2] has the same target. The assay is described as above. This is another data set of the same source.

Take “UTRO (mouse) (from UniProt E9Q6R7 1-3430)”: the binding result in assay [1] was “binds”.

B1: DTNB (mouse) (protein, UniProt O70585 1-659)
chain: MIEEGGNKRKTMAEKRQLFIEMRAQNFDVIRLSTYRTACKLRFVQKRCNLHLVDIWNMIEAFRDNGLNTLDHSTEISVSRLETVISSIYYQLNKRLPSTHQISVEQSISLLLNFMVAAYDSEGRGKLTVFSVKAMLATMCGGKMLDKLRYIFSQMSDSNGLMMFGKLDQFLKEALKLPTAVFEGPSFGYTEHAVRTCFPQQKKIMLNMFLDTMMADPPPQCLVWLPLMHRLAHVENVFHPVECSYCHCESMMGFRYRCQQCHNYQLCQNCFWRGHASGAHSNQHQMKEHSSWKSPAKKLSHAISKSLGCVPSREPPHPVFPEQPEKPLDLAHLVPPRPLTNMNDTVVSHMSSGVPTPTKRLQYSQDMPNLLADEHALIASYVARLQHCTRVLDSPSRLDEEHRLIARYAARLAAEAGNMTRPPTDASFNFDANKQQRQLIAELENKNREILQEIQRLRLEHEQASQPTPEKAQQNPMLLAELRLLRQRKDELEQRMSALQESRRELMVQLEGLMKLLKAQATGSPHTSPTHGGGRPMPMPVRSTSAGSTPTHGPQDSLSGVGGDVQEAFAQGTRRNLRNDLLVAADSITNTMSSLVKELHSGAEAEEQAGTEKTREGLPPRGTFLSVFLLHTWTKLAGCQTHSTSRERSQAYGKWGGTA
For B1, the binding result in assay [2] is listed as “binds”.

B2: SC24C (mouse) (protein, UniProt G3X972 1-1096)
chain: MNVNQSAPPVPPYGQNQPIYPGYHQSSYGGQPGPAAPATPYGAYNGPVPGYQQAPPQGVPRAPPSSGAPPASAAQVPCGQTTYGQFGQGDIQNGPSSTAQMQRVPGSQQFGPPLAPVVSQPAVLQPYGPPPTSTQVTAQLAGMQISGAVAQAPPPSGLGYGPPTSLASASGNFPNSGPYGSYPQSQAPPLSQAQGHPGVQPPLRSAPPLASSFTSPASGGPQMPSMTGLLPPGQGFGSLPVNQANHVSSPPAPALPPGTQMTGPPVPPPPPMHSPQQPGYQLQQNGSFGPARGPQPNYESPYPGAPTFGSQPGPPQPLPPKRLDPDAIPSPIQVIEDDRNNRGSEPFVTGVRGQVPPLVTTNFLVKDQGNASPRYIRCTSYNIPCTSDMAKQAQVPLAAVIKPLARLPPEEASPYVVDHGESGPLRCNRCKAYMCPLMTFIEGGRRFQCSFCSCVNDVPPQYFQHLDHTGKRVDAYDRPELSLGSYEFLATVDYCKNNKFPSPPAFIFMIDVSYNAIRTGLVRLLCEELKSLLDYLPREGGAEESAIRVGFVTYNKVLHFYNVKSSLAQPQMMVVSDVADMFVPLLDGFLVNVSESRAVITSLLDQIPEMFADTRETETVFAPVIQAGMEALKAAECAGKLFLFHTSLPIAEAPGKLKNRDDRKLINTDKEKTLFQPQTGTYQTLAKECVAQGCCVDLFLFPNQYVDVATLSVVPQLTGGSVYKYACFQVENDQERFLSDLRRDVQKVVGFDAVMRVRTSTGIRAVDFFGAFYMSNTTDVELAGLDGDKTVTVEFKHDDRLNEENGALLQCALLYTSCAGQRRLRIHNLALNCCTQLADLYRNCETDTLINYMAKFAYRAVLNSPVKTVRDTLITQCAQILACYRKNCASPSSAGQLILPECMKLLPVYLNCVLKSDVLQPGAEVTTDDRAYVRQLVSSMDVAETNVFFYPRLLPLTKSPLDSTAEPPAVRASEERLSSGDIYLLENGLNLFVWVGASVQQGVVQSLFNVSSFSQITSGLSVLPVLDNPLSKKVRGLIDSLRAQRMRYMKLIVVKQEDKLEMLFKHFLVEDKSLSGGASYVDFLCHMHKEIRQLLS
Turning to B2, the binding result in assay [2] is “binds”.

B3: DTNA (mouse) (protein, UniProt Q9D2N4 1-746)
chain: MIEDSGKRGNTMAERRQLFAEMRAQDLDRIRLSTYRTACKLRFVQKKCNLHLVDIWNVIEALRENALNNLDPNIELNVARLEAVLSTIFYQLNKRMPTTHQIHVEQSISLLLNFLLAAFDPEGHGKISVFAVKMALATLCGGKIMDKLRYIFSMISDSSGVMVYGRYDQFLREVLKLPTAVFEGPSFGYTEQSARSCFSQQKKVTLNGFLDTLMSDPPPQCLVWLPLLHRLANVENVFHPVECSYCHSESMMGFRYRCQQCHNYQLCQDCFWRGHAGGSHSNQHQMKEYTSWKSPAKKLTNALSKSLSCASSREPLHPMFPDQPEKPLNLAHIVPPRPVTSMNDTLFSHSVPSSGSPFITRSSPPKDSEVEQNKMLARAAPAFLKGRGIQYSLNVADRLADEHVLIGLYVNMLRNDPPCMLESSNRLDEEHRLIARYAARLAAESSSSQPTQQRSAPDISFTIDANKQQRQLIAELENKNREILQEIQRLRVEHEQASQPTPEKAQQNPTLLAELRLLRQRKDELEQRMSALQESRRELMVQLEGLMKLLKEEELKQGTQGASSPRSSPSHTISRPIPMPIRSASACPTPTHTPQDSLTGVGGDVQEAFAQSSRRNLRSDLLVAADSITNTMSSLVKELNSEVASETESTVDSEFSRPQFEDLAPSPTSEKAFLAQIHSRKPGYIHGGAASTTHGDMVPEDGDPYTQPEDGNYENESVRQLENELQLEEYLKQKLQDEAYQVSLQG
Turning to B3, the binding result in assay [2] is on record as “binds”.

B4: SGCD (protein, UniProt P82347 1-289)
chain: MPQEQYSHHRSTMPSSEGPHIYKVGIYGWRKRCLYFFVLLLMILILVNLAMTIWILKVMNFTIDGMGNLRITEKGLKLEGDSEFLQPLYAKEIKSRPGNALYFKSARNVTVNILNDQTKVLTQLVTGPKAVEAYGKRFEVKTVSGKLLFSADDSEVVVGAERLRVLGAEGTVFPKSIETPNVRADPFKELRLESPTRSLVMEAPKGVEINAEAGNMEAICRSELRLESKDGEIKLDAAKIKLPRLPRGSYTPTGTRQKVFEVCVCANGRLFLSQAGTGSTCQINTSVCL
B4: the binding entry in assay [2] was “binds”.

B5: SNTB1 (mouse) (protein, UniProt Q99L88 1-537)
chain: MAVAAAAVAAPAGGGGARAQRSGLLEVLVRDRWHKVLVNLSEDALVLSCEEGAAAYNGIGAATNGSFCRGSGTGHPVPGVAQAPDSPAGVRTAFTDLPEQVPESISNQKRGVKVLKQELGGLGISIKGGKENKMPILISKIFKGLAADQTQALYVGDAILSVNGADLRDATHDEAVQALKRAGKEVLLEVKYMREATPYVKKGSPVSEIGWETPPPESPRLGGGSAEPLSSQSFSFHRDRKSIPLKMCYVTRNMTLADPENRQLEIHSPDAKHTVILRSKDSATAQAWFSAIHSNAGDLLTRVVADIREQLGKTGIAGSREIRHLGWLAEKVPGESEKQWKPALVVLTEKDLLIYDSMPRRKEAWFSPVHSYPLLATRLVHSGPGKGSPQAGMDLSFATRTGTKQGIETHLFRAEISRDLSHWTRSIVQGCHNSAELTAEITTACTYRNQECRLTIHYDNGFSISTEPQDGAFPKTIIQSPYEKLKMSSDDGIRMLYLDFGGKEGEIQLDLHSCPKPIVFIIHSFLSAKITRLGLVA
With B5, in assay [2], the binding entry is listed as “binds”.

B6: SHOC2 (protein, UniProt O88520 1-582)
chain: MSSSLGKEKDSKEKDPKVPSAKEREKESKASGGFGKESKEKEPKAKGKDAKDGKKESSAAQPGVAFSVDNTIKRPNPAPGTRKKSSNAEVIKELNKCREENSMRLDLSKRSIHILPPSVKELTQLTELYLYSNKLQSLPAEVGCLVNLMTLALSENSLTSLPDSLDNLKKLRMLDLRHNKLREIPSVVYRLDSLTTLYLRFNRITTVEKDIKNLPKLSMLSIRENKIKQLPAEIGELCNLITLDVAHNQLEHLPKEIGNCTQITNLDLQHNDLLDLPDTIGNLSSLNRLGLRYNRLSAIPRSLAKCSALEELNLENNNISTLPESLLSSLVKLNSLTLARNCFQLYPVGGPSQFSTIYSLNMEHNRINKIPFGIFSRAKVLSKLNMKDNQLTSLPLDFGTWTSMVELNLATNQLTKIPEDVSGLVSLEVLILSNNLLKKLPHGLGNLRKLRELDLEENKLESLPNEIAYLKDLQKLVLTNNQLSTLPRGIGHLTNLTHLGLGENLLTHLPEEIGTLENLEELYLNDNPNLHSLPFELALCSKLSIMSIENCPLSHLPPQIVAGGPSFIIQFLKMQGPYRAMV
Turning to B6, the binding result in assay [2] is recorded as “binds”.

For the origin of these results see PMC4618059.
